Test results as given in PubChem BioAssay AID489008 (National Center for Advancing Translational Sciences (NCATS), 2010).
This list was built around the results that the source calls inconclusive (neither active nor inactive); the mix of calls is not that of the screen. Where the call is inconclusive, the potency comes from a doubtful curve fit. The source made the active and inactive calls. Calls come from the whole dose curve; as a rule, active = well fitted inhibition curve with a large enough effect; inconclusive = small, poorly fitted or top-dose-only effect; inactive = flat fitted curve, though single readings scatter.

Amino acid sequences for entries named in this document (tags omitted). Residues count along the entry.
UniProt P02791, 2-175 limits assumed: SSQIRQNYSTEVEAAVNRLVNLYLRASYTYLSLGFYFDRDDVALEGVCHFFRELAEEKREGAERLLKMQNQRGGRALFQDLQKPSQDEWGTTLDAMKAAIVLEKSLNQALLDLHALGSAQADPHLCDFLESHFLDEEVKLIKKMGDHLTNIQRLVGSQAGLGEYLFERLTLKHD

target: Ferritin light chain (Equus caballus) (UniProt P02791); assay: Confirmation Assay for Identification of Novel General Anesthetics; details: apoferritin 1-aminoanthracene fluorescence displacement; note: nearly all actives have a fitted effect of over 40% in size
Procedure, shortened: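 Horse apoferritin (10 uM) pre-loaded with 1-AMA (50% saturated, PBS) exposed to compounds 10 min at room temperature; loss of 1-AMA fluorescence (380/535 nm) scaled between free and bound ligand, curves fitted with Hill equation.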
Potency is the fitted concentration of half-maximal effect.

Potency, active:
Cc1ccc(-c2ccc(=O)n(CC(=O)NCc3ccco3)n2)cc1 11.2 µM
O=C(CCC1CCCCC1)Nc1nccs1 39.8 µM
O=c1c2ccccc2nnn1Cc1ccccc1Cl 15.8 µM
CCN(CC)S(=O)(=O)c1ccc(C)c(C)c1 22.4 µM
CC1CCCC(C)N1C(=O)CSc1nnnn1Cc1ccccc1 (stereo not drawn) 8.91 µM
CCCCOC(=O)Nc1ccc(C)c(Cl)c1 17.8 µM
O=C(Nc1ccc(F)c(Cl)c1)N1CCCCCC1 7.94 µM
CCC(CC)C(=O)OCC(=O)NC12CC3CC(CC(C3)C1)C2 10 µM
Cc1ccccc1OCC(=O)N1CCCc2ccccc21 17.8 µM
O=C(COc1ccccc1)N1CCCCCCC1 12.6 µM
Cc1ccccc1Oc1ccccc1N 15.8 µM

Potency, inconclusive:
c1cncc(CNc2ccc3c(c2)OCO3)c1 39.8 µM [inhibitor, partial curve]
c1ccc(-c2csc(N3CCOCC3)n2)cc1 25.1 µM [inhibitor, partial curve]
CC1Cc2ccccc2N1C(=O)COc1ccc2c(c1)OCO2 (stereo not drawn) 31.6 µM [inhibitor, partial curve]
Cc1cc(C)n(-c2ccc(C(=O)Nc3nc4ccccc4s3)cc2)n1 35.5 µM [inhibitor, partial curve]
CC1=CCC(COC(=O)Nc2ccccc2)CC1 (stereo not drawn) 15.8 µM [inhibitor, partial curve]
CC1(C(=O)Nc2cccc(C(F)(F)F)c2)Cc2ccccc2C(=O)O1 (stereo not drawn) 20 µM [inhibitor, partial curve]
Cc1ccc(OCCCn2ccnc2)cc1C 22.4 µM [inhibitor, partial curve]
CCN(C(=O)COc1ccccc1)C1CCCCC1 14.1 µM [inhibitor, partial curve]
CCOC(=O)c1sc(Nc2cccc(C)c2C)nc1C 35.5 µM [inhibitor, partial curve]
O=C(c1cc(COc2ccc3ncccc3c2)on1)N1CCCCCC1 31.6 µM [inhibitor, partial curve]
Cc1cccc(NC(=O)COC(=O)CNC(=O)C2CCCCC2)c1 17.8 µM [inhibitor, partial curve]
c1ccc(OCc2nnc3sc(C4COc5ccccc5O4)nn23)cc1 (stereo not drawn) 44.7 µM [inhibitor, partial curve]
CC1CCCCN1C(=O)Nc1cccc(Cl)c1 (stereo not drawn) 31.6 µM [inhibitor, partial curve]
Cc1ccc(Sc2ccc(NC(=O)CCl)cc2)c(C)c1 10 µM [inhibitor, full curve]
CCC1(Cc2ccccc2)NC(=O)c2ccccc2O1 (stereo not drawn) 22.4 µM [inhibitor, partial curve]
NNC(=O)c1cccc(COc2cccc(Br)c2)c1 17.8 µM [inhibitor, partial curve]
O=C(Nc1cccc([N+](=O)[O-])c1)N1CCCCCC1 25.1 µM [inhibitor, partial curve]
O=C(CSc1ccc(Cl)cc1)NN=C1CCCCCC1 44.7 µM [inhibitor, partial curve]
O=C(COC(=O)C12CC3CC(CC(C3)C1)C2)NCCc1ccccc1 35.5 µM [inhibitor, partial curve]
Nc1nc(C2CCCCC2)cs1 39.8 µM [inhibitor, partial curve]
O=C(CSC(=S)N1CCCCC1)N1N=CCC1c1ccccc1 (stereo not drawn) 28.2 µM [inhibitor, partial curve]
Cc1ccc(Oc2ccc(N)cc2)cc1 28.2 µM [inhibitor, partial curve]
Cc1ccc(NCCC(=O)c2cccs2)cc1C 35.5 µM [inhibitor, partial curve]
O=C(CSC1=NCCS1)N1CCCCCC1 15.8 µM [inhibitor, partial curve]
CCCSc1nnc(-c2c[nH]c3ccccc23)n1C 35.5 µM [inhibitor, partial curve]
O=S1(=O)C=C(Oc2ccc3ccccc3c2)c2ccccc21 39.8 µM [inhibitor, partial curve]
O=C(Nc1ccc2c(c1)OCO2)OCc1ccccc1 22.4 µM [inhibitor, partial curve]

Fetched by compound from the entries so far:
Potency, inconclusive:
CC1CCCCN1C(=O)Nc1cccc(Cl)c1 (stereo not drawn) 31.6 µM [inhibitor, partial curve]
Cc1ccc(OCCCn2ccnc2)cc1C 22.4 µM [inhibitor, partial curve]
